What was measured:
[1] = Chemiluminescence enzyme immunoassay of E2 (POD-labeled anti-immunocomplex antibody, luminol, hydrogen peroxide) with enhancer; type: biochemical
hCG = assay: Chemiluminescence enzyme immunoassay of hCG (POD-labeled antibody, luminol, hydrogen peroxide) with enhancer; type: biochemical, human
[2] = concentration of enhancer 0.10 (reaction concentration, mM), luminescence intensity of 200 μg/mL E2 solution / blank
[3] = concentration of enhancer 0.10 (reaction concentration, mM), luminescence intensity of 3,000 μg/mL / 2,000 μg/mL E2 solution
[4] = concentration of enhancer 0.10 (reaction concentration, mM), luminescence intensity of 10 mIU/mL hCG solution / blank sample
[5] = concentration of enhancer 0.10 (reaction concentration, mM), luminescence intensity of 30,000 mIU/mL / 20,000 mIU/mL hCG solution

For `Oc1ccc(-c2cccc(Cl)c2)cc1` [Example 7], the Low sensitivity [1, 2] was 25.97 and the High sensitivity [1, 3] was 1.48.

For `NC(=O)c1ccc(-c2ccc(O)cc2)cc1` [Example 4], the Low sensitivity [1, 2] was 32.47 and the High sensitivity [1, 3] was 1.64.

`COc1ccccc1-c1ccc(O)cc1` [Example 6] showed a Low sensitivity [1, 2] of 38.72 and a High sensitivity [1, 3] of 1.30.

`O=C(O)c1ccc(-c2ccc(O)cc2)cc1` [BiPCA, 4-(4-hydroxyphenyl)benzoic acid] showed a Low sensitivity (hCG; [4]) of 36.97, a High sensitivity (hCG; [5]) of 1.23 and a Low sensitivity (hCG; concentration of enhancer 0.15 (reaction concentration, mM), 10 mIU/mL hCG / blank) of 37.75. For the same molecule, the High sensitivity (hCG; concentration of enhancer 0.15 (reaction concentration, mM), 30,000 / 20,000 mIU/mL hCG) was 1.25, the Low sensitivity (hCG; concentration of enhancer 0.30 (reaction concentration, mM), 10 mIU/mL hCG / blank) was 38.66 and the High sensitivity (hCG; concentration of enhancer 0.30 (reaction concentration, mM), 30,000 / 20,000 mIU/mL hCG) was 1.22. It also gave a Low sensitivity [1, 2] of 41.87, a High sensitivity [1, 3] of 1.61 and a Low sensitivity ([1]; concentration of enhancer 0.15 (reaction concentration, mM), 200 μg/mL E2 / blank) of 42.21. It also gave a High sensitivity ([1]; concentration of enhancer 0.15 (reaction concentration, mM), 3,000 / 2,000 μg/mL E2) of 1.62, a Low sensitivity ([1]; concentration of enhancer 0.30 (reaction concentration, mM), 200 μg/mL E2 / blank) of 49.20 and a High sensitivity ([1]; concentration of enhancer 0.30 (reaction concentration, mM), 3,000 / 2,000 μg/mL E2) of 1.59.

Molecule `Oc1ccc(-c2cocn2)cc1` [Example 16] has a Low sensitivity [1, 2] of 25.22 and a High sensitivity [1, 3] of 1.60.

With `Cc1cncc(-c2ccc(O)cc2)c1` [Example 13] the Low sensitivity [1, 2] was 39.94 and the High sensitivity [1, 3] was 1.71.

With `Oc1ccc(I)cc1` [PIP, reference compound] the Low sensitivity [1, 2] was 17.91, the Low sensitivity ([1]; concentration of enhancer 0.10 (reaction concentration, mM), luminescence intensity of 200 μg/mL E2 solution / blank, listed as Comparative Example 4) was “significantly reduced” and the High sensitivity [1, 3] was 1.68. For the same molecule, the High sensitivity ([1]; concentration of enhancer 0.10 (reaction concentration, mM), luminescence intensity of 3,000 μg/mL / 2,000 μg/mL E2 solution, listed as Comparative Example 4) was “improved”.

Molecule `Cc1cccc(-c2ccc(O)cc2)n1` [Example 9] has a Low sensitivity [1, 2] of 44.76 and a High sensitivity [1, 3] of 1.69.

`Oc1ccccc1.c1cscn1` [TP, thiazole phenol, reference compound] gave a Low sensitivity (hCG; [4]) of 19.78, a High sensitivity (hCG; [5]) of 0.99 and a Low sensitivity [1, 2] of 30.67. For the same molecule, the High sensitivity [1, 3] was 0.87.

In the case of `O=C(O)c1cc(-c2ccc(O)cc2)cs1` [Example 14], the Low sensitivity [1, 2] is reported as 42.67 and the High sensitivity [1, 3] is reported as 1.60.

`Oc1ccc(-c2cccc(F)c2)cc1` [Example 5] showed a Low sensitivity [1, 2] of 36.56 and a High sensitivity [1, 3] of 1.31.

In the case of `COc1cccc(-c2ccc(O)cc2)n1` [Example 11], the Low sensitivity [1, 2] is reported as 34.51 and the High sensitivity [1, 3] is reported as 1.81.

In the case of `Oc1ccc(Br)cc1` [PBP, reference compound], the Low sensitivity [1, 2] is reported as 8.15, the Low sensitivity ([1]; concentration of enhancer 0.10 (reaction concentration, mM), luminescence intensity of 200 μg/mL E2 solution / blank, listed as Comparative Example 3) is reported as “significantly reduced” and the High sensitivity [1, 3] is reported as 1.62. The High sensitivity ([1]; concentration of enhancer 0.10 (reaction concentration, mM), luminescence intensity of 3,000 μg/mL / 2,000 μg/mL E2 solution, listed as Comparative Example 3) was “improved”.

Work on `O=C(O)c1ccc(-c2ccc(O)cc2)s1` [Example 15] yielded a Low sensitivity [1, 2] of 38.30 and a High sensitivity [1, 3] of 1.76.

With `Cc1ccc(-c2ccc(O)cc2)nc1` [Example 8] the Low sensitivity [1, 2] was 56.23 and the High sensitivity [1, 3] was 1.49.

`Oc1ccc(-n2cccc2)cc1` [Example 17] gave a Low sensitivity [1, 2] of 29.07 and a High sensitivity [1, 3] of 1.79.

With `Oc1ccc(-c2ccccn2)cc1` [Example 10] the Low sensitivity [1, 2] was 40.33 and the High sensitivity [1, 3] was 1.86.

Work on `O=C(O)c1cccc(-c2ccc(O)cc2)c1` [Example 3] yielded a Low sensitivity [1, 2] of 37.48 and a High sensitivity [1, 3] of 1.63.

`COc1ncccc1-c1ccc(O)cc1` [Example 12] showed a Low sensitivity [1, 2] of 40.38 and a High sensitivity [1, 3] of 1.41.

Source: patent US20260227417A1, “METHOD FOR MEASURING ANTIGEN CONTAINED IN TEST SAMPLE, AND KIT FOR MEASURING HUMAN CHORIONIC GONADOTROPIN OR ESTRADIOL” (FUJIFILM Corporation, priority 2023, published 2026)
